Reference: article PMC5385555, “Molecular basis for the behavioral effects of the odorant degrading enzyme Esterase 6 in Drosophila” (Scientific Reports, 2017)
No constants are given. Whether binding was seen depends on the method and setting. Some binding calls cover weakened binding; strength is not graded here.

Target: EST6-1 (esterase 6 variant with greatest soluble expression after six rounds of directed evolution) (Drosophila melanogaster) (UniProt P08171)
Assay: SEC; Hiload 26/600 Superdex 200 pg column, 20 mM Hepes pH 7.5, 50 mM NaCl; self-association of EST6-1 (monomer and dimer peaks); both purified

B1: EST6-1 (esterase 6 variant with greatest soluble expression after six rounds of directed evolution) (enzyme, UniProt P08171 22-544)
chain: SDTDDPLLVQLPQGVLRGRDNGSYYSYESIPYAEPPTGDLRFEAPEPYKQKWSDIFDATKTPVACLQWDQFTPGANKLVGEEDCLTVSVYKPKNSKRNSFPVVAHIHGGAFMFGAAWQNGHENVMREGKFILVKISYRLGPLGFLSTGDRDLPGNYGLKDQRLALKWIKQNIASFGGEPQNVLLVGHSAGGASVHLQMLREDFGQLAKAAFSFSGNALDPWVIQKGARERAFELGRSVGCESAEDSASLKKCLKSKPASELVTAVRKFLIFSYVPFAPFSPVLEPSDAPGAFITQDPRDVIKSGKFGQVPWAVSYVTEDGGYNAALLLKERKSGVVIDDLNERWLELAPYLLFYRDTKTKKDMDDYSRKIKQEYIGNQRFDIGSYSELQRLFTDILFKNGTQESLDLHRKYGKSPVYAYVYDNPAEKGIAQVLANRTDYDFGTVHGDDYSLIFENSVRDVEMRPDEQIISRNFINMLADFASSDDGSLKYGECDFKDNVGSEKFQLLAIYTDGCQNRQHVEFP
binding: binds weakly
